The subject of the assay is BDF1 mice, P388/VCR leukemia ip, median survival T/C. Kind of assay: NCI In Vivo Anticancer Drug Screen. Data for tumor model P388 Leukemia resistant to Vincristine; NSC 67574 (intraperitoneal) in B6D2F1 (BDF1) mice. The note with it: T/C endpoint: median survival time, schedule: Q01DX010 (ip), vehicle: saline, higher T/C = longer survival. The procedure:
The antitumor activity of compounds was measured in mice bearing transplantable tumors. Survival or tumor size were measured and the results are expressed as the measurement made in the treated group (T) divided by the measurement made in the vehicle treated control group (C). The tumor model used in this assay is P388 Leukemia resistant to Vincristine; NSC 67574 (intraperitoneal) in B6D2F1 (BDF1) mice

The list is a part of this screen's results and no random one: it covers a few groups of compounds. Other doses and runs of a compound may be missing. T/C is the treated group as % of the vehicle group. Some doses have a count of surviving animals in place of a T/C: the source files T/C as zero there, which appears to mark a toxic dose or a test without result, not a measured value. Some survivor counts are full or nearly so, which does not show that the dose was tolerated: survival well below the control is almost never listed, so the zero probably covers shortened survival too. Survivors were counted at the toxicity check, usually on the fifth day, unless a day is given; later deaths do not show. Schedule codes are those of the source, read here as Q, the interval in days (D) or hours (H), X, the number of doses. For survival time, this PubChem deposit counts one and a half times the control or more as active, and values a quarter to a half above the control carry no call in these data; other NCI protocols may use other cut-offs. Some doses were run more than once; the results are listed from low to high. Some T/C values carry the count of animals alive at the toxicity check (mostly the fifth day); where neither a count nor a note follows, no animal had died by that day.

With `CN(N=O)C(=N)N[N+](=O)[O-]`, the T/C (dose: 8.0 mg/kg/injection) is 119 and 146 % of control; the T/C (dose: 16.0 mg/kg/injection) is 138 and 146 % of control. The survivor count (dose: 32.0 mg/kg/injection) was 6 of 6 and the survivor count (dose: 64.0 mg/kg/injection) is given as 6 of 6.
As to `Cc1[nH]c(=O)[nH]c(=O)c1N(CCCl)CCCl`, the T/C reads like this: (dose: 0.13 mg/kg/injection) 110 % of control; (dose: 0.25 mg/kg/injection) 110 % of control; (dose: 0.5 mg/kg/injection) 133 and 164 % of control; (dose: 1.0 mg/kg/injection) 90 % of control. Besides, the survivor count runs as follows: (dose: 1.0 mg/kg/injection) 6 of 6; (dose: 2.0 mg/kg/injection) 6 of 6; (dose: 4.0 mg/kg/injection) 6 of 6.
As for `NC1CCCCC1.O=P(O)(N(CCCl)CCCl)N1CC1`, the T/C (dose: 1.25 mg/kg/injection) was 121 [5 of 6 alive] and 125 % of control; the T/C (dose: 2.5 mg/kg/injection) was 121 and 139 % of control; the T/C (dose: 5.0 mg/kg/injection) is 157 and 171 % of control; the T/C (dose: 10.0 mg/kg/injection) was 200 and 214 % of control.

These data come from PubChem BioAssay AID336 (DTP/NCI, 2004).
